Results on one molecule are retold here after patent US20060264460A1 (Wyeth, priority 2005, published 2006).

Protein sequences, listed by entry. Tags and fused reporters are not part of them. Residues count along the entry.
UniProt P41279, 30-398 limits assumed: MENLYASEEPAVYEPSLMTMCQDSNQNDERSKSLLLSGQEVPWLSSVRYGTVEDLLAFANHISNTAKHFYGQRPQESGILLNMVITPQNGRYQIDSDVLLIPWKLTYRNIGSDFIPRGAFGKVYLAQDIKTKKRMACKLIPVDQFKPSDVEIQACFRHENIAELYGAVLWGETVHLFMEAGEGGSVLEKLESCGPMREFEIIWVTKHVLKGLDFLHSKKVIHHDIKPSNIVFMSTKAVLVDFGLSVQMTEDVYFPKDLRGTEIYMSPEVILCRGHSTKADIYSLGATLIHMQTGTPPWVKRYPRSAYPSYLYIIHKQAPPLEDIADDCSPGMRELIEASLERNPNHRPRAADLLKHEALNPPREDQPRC

The target in this test is human Cot/Tpl2 kinase (Homo sapiens, UniProt P41279). The experiment in a line: Tpl2/Cot kinase assay: GST-MEK1 phosphorylation detected by ELISA (DELFIA Eu). Type of test: biochemical. The conditions noted are these: Table 2, GST-MEK1 substrate, 50 uM ATP. (ELISA stands for enzyme-linked immunosorbent assay.)

The match of structure and compound is tentative.

As to `N#Cc1cnc2c(Cl)cc(NCc3cn(CCC4CCNCC4)nn3)cc2c1Nc1ccc(F)c(Cl)c1` [Example 692], the IC50 – broadly, the concentration needed to halve the response being measured – worked out at 45 nM.
